Reference: patent US10655130
These are yes or no findings as the source states them, for the method shown. In cells and extracts the contact can be indirect. Some entries that bind do so weakly or less than the wild type.

Sequences of proteins named here, by UniProt entry; tags and fusion partners are left off.
UniProt Q16665: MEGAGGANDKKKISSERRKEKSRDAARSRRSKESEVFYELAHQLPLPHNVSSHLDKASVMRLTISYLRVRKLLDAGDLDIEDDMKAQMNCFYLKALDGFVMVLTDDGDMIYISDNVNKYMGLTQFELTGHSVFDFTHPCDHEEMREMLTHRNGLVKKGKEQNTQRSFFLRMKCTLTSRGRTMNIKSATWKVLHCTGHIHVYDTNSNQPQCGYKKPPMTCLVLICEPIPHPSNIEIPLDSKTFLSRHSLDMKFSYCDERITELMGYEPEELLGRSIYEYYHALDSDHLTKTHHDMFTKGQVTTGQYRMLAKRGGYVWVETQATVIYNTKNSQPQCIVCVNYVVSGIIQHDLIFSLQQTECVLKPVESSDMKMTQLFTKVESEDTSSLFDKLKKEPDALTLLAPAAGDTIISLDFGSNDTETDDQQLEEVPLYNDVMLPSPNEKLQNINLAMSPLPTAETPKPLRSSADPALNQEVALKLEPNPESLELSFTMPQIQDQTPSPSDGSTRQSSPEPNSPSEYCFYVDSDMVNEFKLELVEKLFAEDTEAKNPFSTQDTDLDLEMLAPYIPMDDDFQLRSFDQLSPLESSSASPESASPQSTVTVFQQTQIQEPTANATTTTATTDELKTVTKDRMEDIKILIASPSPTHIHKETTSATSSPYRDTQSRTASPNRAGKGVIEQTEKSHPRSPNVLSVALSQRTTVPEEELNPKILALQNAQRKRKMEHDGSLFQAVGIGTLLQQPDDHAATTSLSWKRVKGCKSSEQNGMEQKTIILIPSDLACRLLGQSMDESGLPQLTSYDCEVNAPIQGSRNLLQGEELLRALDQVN

How the values were obtained:
[1] = biological target: T1, XBP1s (spliced X-box binding protein 1), expressed from a plasmid (UniProt P17861); assay: co-immunoprecipitation with M2 anti-FLAG antibody from 293T cell extracts (hypoxia), western blot
T1 sequence (looked up): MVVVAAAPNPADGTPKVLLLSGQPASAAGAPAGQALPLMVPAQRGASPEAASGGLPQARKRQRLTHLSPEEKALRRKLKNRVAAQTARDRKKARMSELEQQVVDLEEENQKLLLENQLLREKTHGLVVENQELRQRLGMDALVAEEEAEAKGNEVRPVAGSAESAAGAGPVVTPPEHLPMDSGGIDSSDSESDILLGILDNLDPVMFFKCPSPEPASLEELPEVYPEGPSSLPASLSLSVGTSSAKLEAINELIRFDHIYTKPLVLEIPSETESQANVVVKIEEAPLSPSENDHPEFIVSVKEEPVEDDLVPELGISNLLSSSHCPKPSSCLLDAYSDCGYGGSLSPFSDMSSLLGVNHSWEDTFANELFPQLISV

[2] = biological target: endogenous HIF1α in nuclear extracts of MDA-MB-231 and Hs578T cells (human) (UniProt Q16665); assay: endogenous co-immunoprecipitation from nuclear extracts of MDA-MB-231 and Hs578T cells (tunicamycin, 0.1% O2), western blot
[3] = biological target: endogenous HIF1α in nuclear extracts of MDA-MB-231 and Hs578T cells (human) (UniProt Q16665); assay: title of the legend of FIG. 5 (co-immunoprecipitation panels B, C, M)
[4] = biological target: endogenous HIF1α in nuclear extracts of MDA-MB-231 and Hs578T cells (human) (UniProt Q16665); assay: summary of the co-immunoprecipitation, ChIP and reporter experiments of Example 6

Molecule	binding [1]	binding [2]	binding [3]	binding [4]
FLAG-tagged HIF1α (hypoxia-inducible factor 1α), co-expressed in 293T cells (from UniProt Q16665 1-826)	binds			
endogenous XBP1 (spliced form, XBP1s) in nuclear extracts of MDA-MB-231 and Hs578T cells (protein, human, UniProt P17861-2 1-376, looked up) MVVVAAAPNPADGTPKVLLLSGQPASAAGAPAGQALPLMVPAQRGASPEAASGGLPQARKRQRLTHLSPEEKALRRKLKNRVAAQTARDRKKARMSELEQQVVDLEEENQKLLLENQLLREKTHGLVVENQELRQRLGMDALVAEEEAEAKGNEVRPVAGSAESAAGAGPVVTPPEHLPMDSGGIDSSDSESDILLGILDNLDPVMFFKCPSPEPASLEELPEVYPEGPSSLPASLSLSVGTSSAKLEAINELIRFDHIYTKPLVLEIPSETESQANVVVKIEEAPLSPSENDHPEFIVSVKEEPVEDDLVPELGISNLLSSSHCPKPSSCLLDAYSDCGYGGSLSPFSDMSSLLGVNHSWEDTFANELFPQLISV		binds	binds	binds
